Test results reported in publication PMC3576372.
Results are given in words; binding and its absence hold for the method and conditions named. In cells and extracts the contact can be indirect. Some results given as binding are weak or reduced against the parent protein; the word gives no strength.

Sequences of proteins named here, by UniProt entry; tags and fusion partners are left off. A change or cut given only in a name is not applied to a line headed by its entry.
UniProt P56696: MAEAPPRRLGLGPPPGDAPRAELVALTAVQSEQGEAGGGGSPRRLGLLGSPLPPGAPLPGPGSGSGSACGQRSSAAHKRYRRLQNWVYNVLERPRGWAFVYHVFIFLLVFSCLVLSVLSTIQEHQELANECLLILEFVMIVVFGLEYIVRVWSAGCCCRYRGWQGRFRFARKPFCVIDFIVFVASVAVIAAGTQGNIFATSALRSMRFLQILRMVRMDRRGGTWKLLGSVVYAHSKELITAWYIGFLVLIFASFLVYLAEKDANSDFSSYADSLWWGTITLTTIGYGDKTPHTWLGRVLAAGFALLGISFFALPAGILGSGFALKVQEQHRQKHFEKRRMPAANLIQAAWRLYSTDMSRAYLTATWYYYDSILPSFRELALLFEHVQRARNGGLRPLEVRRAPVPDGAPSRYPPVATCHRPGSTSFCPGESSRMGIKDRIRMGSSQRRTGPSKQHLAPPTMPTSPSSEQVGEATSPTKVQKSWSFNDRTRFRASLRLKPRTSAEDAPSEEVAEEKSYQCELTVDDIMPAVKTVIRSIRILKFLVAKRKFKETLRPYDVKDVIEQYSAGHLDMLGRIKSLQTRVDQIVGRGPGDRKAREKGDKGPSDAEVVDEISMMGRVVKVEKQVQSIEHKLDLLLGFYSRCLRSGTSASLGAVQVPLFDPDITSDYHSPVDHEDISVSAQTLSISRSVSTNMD
UniProt P08238: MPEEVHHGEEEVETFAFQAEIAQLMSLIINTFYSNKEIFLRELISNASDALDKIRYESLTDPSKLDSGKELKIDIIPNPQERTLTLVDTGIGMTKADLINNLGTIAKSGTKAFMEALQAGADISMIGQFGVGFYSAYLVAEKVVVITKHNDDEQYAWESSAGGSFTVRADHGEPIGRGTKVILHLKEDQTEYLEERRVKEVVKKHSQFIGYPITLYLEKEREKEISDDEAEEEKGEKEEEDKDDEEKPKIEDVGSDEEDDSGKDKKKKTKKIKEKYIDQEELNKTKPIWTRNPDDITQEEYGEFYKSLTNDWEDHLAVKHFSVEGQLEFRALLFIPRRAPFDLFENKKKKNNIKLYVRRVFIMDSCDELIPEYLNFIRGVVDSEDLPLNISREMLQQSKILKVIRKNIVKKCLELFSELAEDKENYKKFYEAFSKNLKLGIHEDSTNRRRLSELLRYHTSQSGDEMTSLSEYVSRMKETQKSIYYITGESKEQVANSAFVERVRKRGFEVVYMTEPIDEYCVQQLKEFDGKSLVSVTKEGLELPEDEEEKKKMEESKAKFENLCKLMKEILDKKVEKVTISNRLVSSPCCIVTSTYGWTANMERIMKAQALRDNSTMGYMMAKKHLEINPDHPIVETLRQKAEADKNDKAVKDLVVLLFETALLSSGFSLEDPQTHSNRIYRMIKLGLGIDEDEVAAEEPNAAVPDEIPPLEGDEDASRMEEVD
UniProt P11142: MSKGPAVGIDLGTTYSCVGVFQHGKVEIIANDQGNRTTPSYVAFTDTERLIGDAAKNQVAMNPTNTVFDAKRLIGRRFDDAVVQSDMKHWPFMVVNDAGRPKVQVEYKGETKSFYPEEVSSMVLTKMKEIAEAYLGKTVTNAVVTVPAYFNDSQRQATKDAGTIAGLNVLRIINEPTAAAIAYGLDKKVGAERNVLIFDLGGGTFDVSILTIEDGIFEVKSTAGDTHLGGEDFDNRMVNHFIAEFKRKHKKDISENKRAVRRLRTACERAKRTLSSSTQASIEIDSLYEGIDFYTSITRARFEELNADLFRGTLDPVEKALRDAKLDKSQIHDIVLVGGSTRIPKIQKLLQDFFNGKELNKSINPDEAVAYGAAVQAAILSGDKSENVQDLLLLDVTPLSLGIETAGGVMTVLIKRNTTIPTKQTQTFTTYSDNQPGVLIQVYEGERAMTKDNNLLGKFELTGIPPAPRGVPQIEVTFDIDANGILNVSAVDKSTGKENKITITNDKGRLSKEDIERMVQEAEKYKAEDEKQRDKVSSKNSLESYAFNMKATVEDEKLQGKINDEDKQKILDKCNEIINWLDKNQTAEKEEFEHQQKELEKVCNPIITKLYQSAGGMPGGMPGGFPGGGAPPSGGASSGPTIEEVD

Assays:
Test in all cases: co-IP; HEK293T cells transfected with HA-KCNQ4 or vector, 24 hrs; NP40 lysis buffer; lysate with anti-HA or anti-chaperone antibody at 4°C for 16 hrs, Dynabeads Protein G, Western blot; reciprocal
[1] = target: HA-KCNQ4 (voltage-gated potassium channel KCNQ4 with a modified HA epitope in the first extracellular loop) (human) (UniProt P56696)
[2] = target: DjA1 (constitutive isoform of HSP40) (human (endogenous in HEK293T)) (UniProt P31689)
[3] = target: HSP90β (constitutive isoform of HSP90) (human (endogenous in HEK293T)) (UniProt P08238)
[4] = target: HSP90α (inducible isoform of HSP90) (human (endogenous in HEK293T)) (UniProt P07900)
[5] = target: HSC70 (heat-shock 70kD cognate protein, constitutive isoform of HSP70) (human (endogenous in HEK293T)) (UniProt P11142)

binding [1] | Substance | other results
binds | DjA1 (constitutive isoform of HSP40) (from UniProt P31689 1-397) | –
binds | HSP90α (inducible isoform of HSP90) (from UniProt P07900-1 1-732) | –
binds | HSC70 (heat-shock 70kD cognate protein, constitutive isoform of HSP70) (from UniProt P11142 1-646) | –

The next lines start with the substance.

Substance | binding [1] | other results
HSP90β (constitutive isoform of HSP90) (from UniProt P08238 1-724) | binds | –
HA-KCNQ4 (voltage-gated potassium channel KCNQ4 with a modified HA epitope in the first extracellular loop) (from UniProt P56696-1 1-695) | – | binding [2]: binds; binding [3]: binds; binding [4]: binds; binding [5]: binds
HOP (heat-shock protein organizing protein) (from UniProt P31948-1 1-543) | binds | –
CHIP (C-terminal of HSP70-interacting protein) (from UniProt Q9UNE7-1 1-303) | binds | –
